Data as given in PubChem BioAssay AID720505 (Drosophila RNAi Screening Center, 2013)

- Screen: 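Fly regulators or components of the CRAC channel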 (primary screen)
- Cells: Drosophila S2R+ cells
- Reagent: long dsRNA against Drosophila genes
- Treatment: thapsigargin (2 µM) in calcium-free buffer to empty internal stores, then 2 mM calcium added back
- Read-out: 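Stores emptied by 2 µM thapsigargin without calcium, then 2 mM calcium re-added; fluo-4 fluorescence followed by FLIPR in 384-well plates, per-well averaged endpoint, raw; two screen passes, some wells retested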
- Scale: calcium signal: higher = more calcium entry after store depletion
- Rule for the call: 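Knock-downs counted as hits when calcium entry dropped relative to STIM1 positive and Rho1 negative controls present on each plate; roughly 1500 genes called, with reductions of differing size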
- Calls: active = called as lowering calcium entry; inactive = not called
In all, the deposit lists about 20,000 reagents; shown is an unselected part of those with a known target gene and a result. In the full data, about 2,100 (10%) are marked active. 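Raw plate signals without normalisation; calls rest on control-based scores that were not deposited; replicate 2 separates called from uncalled poorly.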 Entries without a mark were called inactive. No sequences are given here. Not stated in the record: the amount of reagent, the time to read-out.

Against CG13562 [DRSC04200] the deposit lists calcium signal, replicate 1 = 97.1; calcium signal, replicate 2 = 226.
Knock-down of CG10543 [DRSC04081] came out at: calcium signal, replicate 1 = 188; calcium signal, replicate 2 = 111.
After knock-down of CG10543 [DRSC23102] the results were calcium signal, replicate 1 = 147; calcium signal, replicate 2 = 186.
alpha-Est9 (alpha-Esterase-9) [DRSC12621] gave calcium signal, replicate 1 = 109; calcium signal, replicate 2 = 135.
Against Ir56a (Ionotropic receptor 56a) [DRSC05776], the entry reads calcium signal, replicate 1 = 118; calcium signal, replicate 2 = 100.
Against Pif2 (PFTAIRE-interacting factor 2) [DRSC12525], the values are calcium signal, replicate 1 = 125; calcium signal, replicate 2 = 158.
CG16749 [DRSC15146] gave calcium signal, replicate 1 = 72 (active); calcium signal, replicate 2 = 99.5.
Knock-down of RpS20 (Ribosomal protein S20) [DRSC16836] came out at: calcium signal, replicate 1 = 125 (active); calcium signal, replicate 2 = 115.
After knock-down of Scamp [DRSC20286], the screen gave calcium signal, replicate 1 = 82; calcium signal, replicate 2 = 136.
With knock-down of gsb (gooseberry) [DRSC04692] the results were calcium signal, replicate 1 = 57.6 (active); calcium signal, replicate 2 = 126.
Knock-down of swi2 [DRSC06457] gave: calcium signal, replicate 1 = 109; calcium signal, replicate 2 = 139.
Knock-down of Tmx3 (Thioredoxin-related transmembrane protein 3) [DRSC10471] resulted in: calcium signal, replicate 1 = 85.5; calcium signal, replicate 2 = 80.
After knock-down of CG15423 [DRSC00437], the record shows calcium signal, replicate 1 = 192; calcium signal, replicate 2 = 78.2.
eIF2Balpha (eukaryotic translation initiation factor 2B subunit alpha) [DRSC16332] scored calcium signal, replicate 1 = 136; calcium signal, replicate 2 = 134.
nAChRbeta2 (nicotinic Acetylcholine Receptor beta2) [DRSC17010] scored calcium signal, replicate 1 = 189; calcium signal, replicate 2 = 260.
For CG10863 [DRSC08145], the entry reads calcium signal, replicate 1 = 105; calcium signal, replicate 2 = 121.
Silencing of Meltrin [DRSC16274] gave: calcium signal, replicate 1 = 130; calcium signal, replicate 2 = 145.
After knock-down of Meltrin [DRSC21693], the record shows calcium signal, replicate 1 = 190; calcium signal, replicate 2 = 112.
CG12708 [DRSC19490] scored calcium signal, replicate 1 = 93.4; calcium signal, replicate 2 = 155.
Depletion of PPYR1 (Protein phosphatase Y regulator 1) [DRSC19612] gave: calcium signal, replicate 1 = 80.4; calcium signal, replicate 2 = 105.
With knock-down of SkpD (SKP1-related D) [DRSC22208], the screen gave calcium signal, replicate 1 = 93.7; calcium signal, replicate 2 = 211.
With knock-down of bisc (biscotti) [DRSC04083], the record shows calcium signal, replicate 1 = 64.5 (active); calcium signal, replicate 2 = 137.
After knock-down of CG17298 [DRSC15221], the screen gave calcium signal, replicate 1 = 106; calcium signal, replicate 2 = 89.1.
After knock-down of lncRNA:CR43409 (long non-coding RNA:CR43409) [DRSC01164], the screen gave calcium signal, replicate 1 = 99.8; calcium signal, replicate 2 = 95.1.
Depletion of Cyp6a13 (Cytochrome P450 6a13) [DRSC07375] gave: calcium signal, replicate 1 = 180; calcium signal, replicate 2 = 95.
Silencing of Pss (Phosphatidylserine synthase) [DRSC11757] gave: calcium signal, replicate 1 = 104; calcium signal, replicate 2 = 170.
After knock-down of obst-H (obstructor-H) [DRSC10935] the results were calcium signal, replicate 1 = 71.2; calcium signal, replicate 2 = 105.
After knock-down of obst-H (obstructor-H) [DRSC10940], the record shows calcium signal, replicate 1 = 67.2; calcium signal, replicate 2 = 93.5.
Silencing of CG12693 [DRSC17882] resulted in: calcium signal, replicate 1 = 252; calcium signal, replicate 2 = 164.
Nup44A (Nucleoporin at 44A) [DRSC07248] showed calcium signal, replicate 1 = 182; calcium signal, replicate 2 = 216.
CG17717 [DRSC18130] gave calcium signal, replicate 1 = 165; calcium signal, replicate 2 = 127.
Against CG7377 [DRSC10830] the deposit lists calcium signal, replicate 1 = 85.6; calcium signal, replicate 2 = 87.3.
Knock-down of CG13566 [DRSC04203] resulted in: calcium signal, replicate 1 = 123; calcium signal, replicate 2 = 227.
CG4194 [DRSC18520] scored calcium signal, replicate 1 = 138; calcium signal, replicate 2 = 154.
With knock-down of CG17233 [DRSC10259], the screen gave calcium signal, replicate 1 = 152; calcium signal, replicate 2 = 96.2.

Part of the list above in another layout:
alpha-Est9 (alpha-Esterase-9) [DRSC12621]
- calcium signal, replicate 1: 109
- calcium signal, replicate 2: 135

Ir56a (Ionotropic receptor 56a) [DRSC05776]
- calcium signal, replicate 1: 118
- calcium signal, replicate 2: 100

Pif2 (PFTAIRE-interacting factor 2) [DRSC12525]
- calcium signal, replicate 1: 125
- calcium signal, replicate 2: 158
